Results reported in paper doi:10.1101/2023.12.10.570918.
Results are given in words; binding and its absence hold for the method and conditions named. Binding seen in cells or lysates may run through a third protein. Some entries that bind do so weakly or less than the wild type. For some assays here: Where a sequence is shown, tags or fusion partners need not be part of it.

Protein sequences, listed by entry. Tags and fused reporters are not part of them. Lines headed by an entry give the natural chain unless they say otherwise; changes in a name come on top.
UniProt P68400: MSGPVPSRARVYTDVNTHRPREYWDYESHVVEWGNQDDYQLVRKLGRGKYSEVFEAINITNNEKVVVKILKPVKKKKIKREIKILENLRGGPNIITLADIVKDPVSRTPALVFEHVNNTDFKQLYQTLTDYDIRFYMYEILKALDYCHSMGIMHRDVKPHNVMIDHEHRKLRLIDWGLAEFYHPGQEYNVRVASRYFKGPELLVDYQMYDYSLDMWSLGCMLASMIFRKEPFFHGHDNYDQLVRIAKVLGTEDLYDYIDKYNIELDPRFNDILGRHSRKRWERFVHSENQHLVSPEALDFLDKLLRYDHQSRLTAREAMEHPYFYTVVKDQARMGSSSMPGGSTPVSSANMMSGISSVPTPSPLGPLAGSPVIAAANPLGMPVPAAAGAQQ
UniProt Q92551: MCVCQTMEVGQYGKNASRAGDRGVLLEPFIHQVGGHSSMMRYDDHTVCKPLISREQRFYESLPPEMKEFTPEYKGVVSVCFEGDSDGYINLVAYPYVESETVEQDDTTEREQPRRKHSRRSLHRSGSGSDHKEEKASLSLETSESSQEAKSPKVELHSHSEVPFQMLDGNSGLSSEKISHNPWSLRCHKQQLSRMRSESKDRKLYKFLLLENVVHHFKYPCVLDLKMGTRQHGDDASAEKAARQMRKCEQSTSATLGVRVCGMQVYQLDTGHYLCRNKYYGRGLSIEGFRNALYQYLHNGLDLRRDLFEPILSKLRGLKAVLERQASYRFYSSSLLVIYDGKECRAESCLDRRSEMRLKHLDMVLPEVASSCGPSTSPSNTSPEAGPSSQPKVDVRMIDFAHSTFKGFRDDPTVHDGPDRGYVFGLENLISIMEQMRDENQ
UniProt P01108: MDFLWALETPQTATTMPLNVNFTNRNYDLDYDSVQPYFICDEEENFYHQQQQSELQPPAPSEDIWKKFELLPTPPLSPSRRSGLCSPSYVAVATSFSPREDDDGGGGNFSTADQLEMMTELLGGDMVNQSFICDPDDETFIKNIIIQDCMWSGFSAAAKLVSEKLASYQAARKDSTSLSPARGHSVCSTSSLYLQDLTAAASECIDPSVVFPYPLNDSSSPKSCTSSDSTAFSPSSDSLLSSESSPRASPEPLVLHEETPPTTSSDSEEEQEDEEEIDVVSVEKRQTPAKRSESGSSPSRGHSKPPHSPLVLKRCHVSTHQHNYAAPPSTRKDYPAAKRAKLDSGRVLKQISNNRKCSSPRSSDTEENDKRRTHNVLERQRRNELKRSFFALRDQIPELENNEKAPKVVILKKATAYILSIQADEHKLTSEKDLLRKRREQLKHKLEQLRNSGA

What was measured:
GST-tagged CK2α (human) = GST-tagged CK2α (human) (UniProt P68400); assay: pull-down
HA-tagged CK2α (human) = HA-tagged CK2α (human) (UniProt P68400); assay: co-IP
myc-tagged AP3B1 (human) = target: T1, myc-tagged AP3B1 (human) (UniProt O00203); assay: co-IP
T1 sequence: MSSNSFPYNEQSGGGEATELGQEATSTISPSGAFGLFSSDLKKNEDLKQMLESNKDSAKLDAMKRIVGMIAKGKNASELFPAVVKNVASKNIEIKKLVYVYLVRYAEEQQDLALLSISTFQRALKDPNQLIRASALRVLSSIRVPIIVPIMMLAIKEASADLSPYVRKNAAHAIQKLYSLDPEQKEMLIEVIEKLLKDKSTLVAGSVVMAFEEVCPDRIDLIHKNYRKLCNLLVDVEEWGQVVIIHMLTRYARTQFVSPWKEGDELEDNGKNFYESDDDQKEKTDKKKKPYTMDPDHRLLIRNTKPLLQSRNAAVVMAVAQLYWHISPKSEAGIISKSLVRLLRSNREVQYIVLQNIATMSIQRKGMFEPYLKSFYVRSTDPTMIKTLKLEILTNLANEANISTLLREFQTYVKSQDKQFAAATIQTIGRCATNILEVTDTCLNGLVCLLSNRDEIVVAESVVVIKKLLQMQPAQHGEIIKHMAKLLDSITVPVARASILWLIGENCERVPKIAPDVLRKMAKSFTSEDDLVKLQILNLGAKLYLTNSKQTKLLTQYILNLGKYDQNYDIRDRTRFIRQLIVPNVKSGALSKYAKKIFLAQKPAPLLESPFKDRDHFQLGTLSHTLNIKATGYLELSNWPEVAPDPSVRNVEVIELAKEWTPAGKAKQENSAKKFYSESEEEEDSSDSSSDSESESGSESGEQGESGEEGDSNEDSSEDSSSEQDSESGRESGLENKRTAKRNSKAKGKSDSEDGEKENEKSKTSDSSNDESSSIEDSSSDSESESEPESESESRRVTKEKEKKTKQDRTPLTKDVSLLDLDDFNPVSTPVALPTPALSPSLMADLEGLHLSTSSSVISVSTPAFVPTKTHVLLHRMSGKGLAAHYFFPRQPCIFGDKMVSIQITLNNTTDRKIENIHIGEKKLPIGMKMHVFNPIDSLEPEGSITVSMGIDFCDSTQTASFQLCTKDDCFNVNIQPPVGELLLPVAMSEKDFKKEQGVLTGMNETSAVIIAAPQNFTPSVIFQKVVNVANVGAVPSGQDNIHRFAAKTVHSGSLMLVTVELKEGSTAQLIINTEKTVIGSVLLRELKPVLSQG

SFB-tagged IP6K1 (human) = SFB-tagged IP6K1 (human) (UniProt Q92551); assay: pull-down
V5-tagged IP6K1 (human) = V5-tagged IP6K1 (human) (UniProt Q92551); assay: co-IP
GST-tagged IP6K1 (human) = GST-tagged IP6K1 (human) (UniProt Q92551); assay: pull-down
[1] = target: endogenous IP6K1 (human (endogenous in HEK293T)) (UniProt Q92551); assay: co-IP

V5-tagged IP6K1 (from UniProt Q92551-1 1-441) (enzyme)
binding (GST-tagged CK2α (human)): no binding

endogenous IP6K1 (from UniProt Q92551 1-441) (enzyme)
binding (HA-tagged CK2α (human)): no binding | binding (myc-tagged AP3B1 (human)): binds

V5-tagged mouse MYC (from UniProt P01108 1-454)
binding (SFB-tagged IP6K1 (human)): binds

B1: myc-tagged AP3B1 (protein, UniProt O00203-1 1-1094)
chain: MSSNSFPYNEQSGGGEATELGQEATSTISPSGAFGLFSSDLKKNEDLKQMLESNKDSAKLDAMKRIVGMIAKGKNASELFPAVVKNVASKNIEIKKLVYVYLVRYAEEQQDLALLSISTFQRALKDPNQLIRASALRVLSSIRVPIIVPIMMLAIKEASADLSPYVRKNAAHAIQKLYSLDPEQKEMLIEVIEKLLKDKSTLVAGSVVMAFEEVCPDRIDLIHKNYRKLCNLLVDVEEWGQVVIIHMLTRYARTQFVSPWKEGDELEDNGKNFYESDDDQKEKTDKKKKPYTMDPDHRLLIRNTKPLLQSRNAAVVMAVAQLYWHISPKSEAGIISKSLVRLLRSNREVQYIVLQNIATMSIQRKGMFEPYLKSFYVRSTDPTMIKTLKLEILTNLANEANISTLLREFQTYVKSQDKQFAAATIQTIGRCATNILEVTDTCLNGLVCLLSNRDEIVVAESVVVIKKLLQMQPAQHGEIIKHMAKLLDSITVPVARASILWLIGENCERVPKIAPDVLRKMAKSFTSEDDLVKLQILNLGAKLYLTNSKQTKLLTQYILNLGKYDQNYDIRDRTRFIRQLIVPNVKSGALSKYAKKIFLAQKPAPLLESPFKDRDHFQLGTLSHTLNIKATGYLELSNWPEVAPDPSVRNVEVIELAKEWTPAGKAKQENSAKKFYSESEEEEDSSDSSSDSESESGSESGEQGESGEEGDSNEDSSEDSSSEQDSESGRESGLENKRTAKRNSKAKGKSDSEDGEKENEKSKTSDSSNDESSSIEDSSSDSESESEPESESESRRVTKEKEKKTKQDRTPLTKDVSLLDLDDFNPVSTPVALPTPALSPSLMADLEGLHLSTSSSVISVSTPAFVPTKTHVLLHRMSGKGLAAHYFFPRQPCIFGDKMVSIQITLNNTTDRKIENIHIGEKKLPIGMKMHVFNPIDSLEPEGSITVSMGIDFCDSTQTASFQLCTKDDCFNVNIQPPVGELLLPVAMSEKDFKKEQGVLTGMNETSAVIIAAPQNFTPSVIFQKVVNVANVGAVPSGQDNIHRFAAKTVHSGSLMLVTVELKEGSTAQLIINTEKTVIGSVLLRELKPVLSQG
binding (V5-tagged IP6K1 (human)): binds | binding (GST-tagged CK2α (human)): binds | binding (GST-tagged IP6K1 (human)): binds

B2: myc-tagged NOLC1 (protein, UniProt Q14978-2 1-709)
chain: MADAGIRRVVPSDLYPLVLGFLRDNQLSEVANKFAKATGATQQDANASSLLDIYSFWLKSAKVPERKLQANGPVAKKAKKKASSSDSEDSSEEEEEVQGPPAKKAAVPAKRVGLPPGKAAAKASESSSSEESSDDDDEEDQKKQPVQKGVKPQAKAAKAPPKKAKSSDSDSDSSSEDEPPKNQKPKITPVTVKAQTKAPPKPARAAPKIANGKAASSSSSSSSSSSSDDSEEEKAAATPKKVWTITSVRAETVPKKQVVAKAPVKAATTPTRKSSSSEDSSSDEEEEQKKPMKNKPGPYSSVPPPSAPPPKKSLGTQPPKKAVEKQQPVESSEDSSDESDSSSEEEKKPPTKAVVSKATTKPPPAKKAAESSSDSSDSDSSEDDEAPSKPAGTTKNSSNKPAVTTKSPAVKPAAAPKQPVGGGQKLLTRKADSSSSEEESSSSEEEKTKKMVATTKPKATAKAALSLPAKQAPQGSRDSSSDSDSSSSEEEEEKTSKSAVKKKPQKVAGGAAPSKPASAKKGKAESSNSSSSDDSSEEEEEKLKGKGSPRPQAPKANGTSALTAQNGKAAKNSEEEEEEKKKAAVVVSKSGSLKKRKQNEAAKEAETPQAKKIKLQTPNTFPKRKKGEKRASSPFRRVREEEIEVDSRVADNSFDAKRGAAGDWGERANQVLKFTKGKSFRHEKTKKKRGSYRGGSISVQVNSIKFDSE
binding (V5-tagged IP6K1 (human)): binds

B3: endogenous TCOF (protein, UniProt Q13428 1-1488)
chain: MAEARKRRELLPLIYHHLLRAGYVRAAREVKEQSGQKCFLAQPVTLLDIYTHWQQTSELGRKRKAEEDAALQAKKTRVSDPISTSESSEEEEEAEAETAKATPRLASTNSSVLGADLPSSMKEKAKAETEKAGKTGNSMPHPATGKTVANLLSGKSPRKSAEPSANTTLVSETEEEGSVPAFGAAAKPGMVSAGQADSSSEDTSSSSDETDVEGKPSVKPAQVKASSVSTKESPARKAAPAPGKVGDVTPQVKGGALPPAKRAKKPEEESESSEEGSESEEEAPAGTRSQVKASEKILQVRAASAPAKGTPGKGATPAPPGKAGAVASQTKAGKPEEDSESSSEESSDSEEETPAAKALLQAKASGKTSQVGAASAPAKESPRKGAAPAPPGKTGPAVAKAQAGKREEDSQSSSEESDSEEEAPAQAKPSGKAPQVRAASAPAKESPRKGAAPAPPRKTGPAAAQVQVGKQEEDSRSSSEESDSDREALAAMNAAQVKPLGKSPQVKPASTMGMGPLGKGAGPVPPGKVGPATPSAQVGKWEEDSESSSEESSDSSDGEVPTAVAPAQEKSLGNILQAKPTSSPAKGPPQKAGPVAVQVKAEKPMDNSESSEESSDSADSEEAPAAMTAAQAKPALKIPQTKACPKKTNTTASAKVAPVRVGTQAPRKAGTATSPAGSSPAVAGGTQRPAEDSSSSEESDSEEEKTGLAVTVGQAKSVGKGLQVKAASVPVKGSLGQGTAPVLPGKTGPTVTQVKAEKQEDSESSEEESDSEEAAASPAQVKTSVKKTQAKANPAAARAPSAKGTISAPGKVVTAAAQAKQRSPSKVKPPVRNPQNSTVLARGPASVPSVGKAVATAAQAQTGPEEDSGSSEEESDSEEEAETLAQVKPSGKTHQIRAALAPAKESPRKGAAPTPPGKTGPSAAQAGKQDDSGSSSEESDSDGEAPAAVTSAQVIKPPLIFVDPNRSPAGPAATPAQAQAASTPRKARASESTARSSSSESEDEDVIPATQCLTPGIRTNVVTMPTAHPRIAPKASMAGASSSKESSRISDGKKQEGPATQVSKKNPASLPLTQAALKVLAQKASEAQPPVARTQPSSGVDSAVGTLPATSPQSTSVQAKGTNKLRKPKLPEVQQATKAPESSDDSEDSSDSSSGSEEDGEGPQGAKSAHTLGPTPSRTETLVEETAAESSEDDVVAPSQSLLSGYMTPGLTPANSQASKATPKLDSSPSVSSTLAAKDDPDGKQEAKPQQAAGMLSPKTGGKEAASGTTPQKSRKPKKGAGNPQASTLALQSNITQCLLGQPWPLNEAQVQASVVKVLTELLEQERKKVVDTTKESSRKGWESRKRKLSGDQPAARTPRSKKKKKLGAGEGGEASVSPEKTSTTSKGKAKRDKASGDVKEKKGKGSLGSQGAKDEPEEELQKGMGTVEGGDQSNPKSKKEKKKSDKRKKDKEKKEKKKKAKKASTKDSESPSQKKKKKKKKTAEQTV
binding (SFB-tagged IP6K1 (human)): binds

B4: endogenous AP3B1 (protein, UniProt O00203 1-1094)
chain: MSSNSFPYNEQSGGGEATELGQEATSTISPSGAFGLFSSDLKKNEDLKQMLESNKDSAKLDAMKRIVGMIAKGKNASELFPAVVKNVASKNIEIKKLVYVYLVRYAEEQQDLALLSISTFQRALKDPNQLIRASALRVLSSIRVPIIVPIMMLAIKEASADLSPYVRKNAAHAIQKLYSLDPEQKEMLIEVIEKLLKDKSTLVAGSVVMAFEEVCPDRIDLIHKNYRKLCNLLVDVEEWGQVVIIHMLTRYARTQFVSPWKEGDELEDNGKNFYESDDDQKEKTDKKKKPYTMDPDHRLLIRNTKPLLQSRNAAVVMAVAQLYWHISPKSEAGIISKSLVRLLRSNREVQYIVLQNIATMSIQRKGMFEPYLKSFYVRSTDPTMIKTLKLEILTNLANEANISTLLREFQTYVKSQDKQFAAATIQTIGRCATNILEVTDTCLNGLVCLLSNRDEIVVAESVVVIKKLLQMQPAQHGEIIKHMAKLLDSITVPVARASILWLIGENCERVPKIAPDVLRKMAKSFTSEDDLVKLQILNLGAKLYLTNSKQTKLLTQYILNLGKYDQNYDIRDRTRFIRQLIVPNVKSGALSKYAKKIFLAQKPAPLLESPFKDRDHFQLGTLSHTLNIKATGYLELSNWPEVAPDPSVRNVEVIELAKEWTPAGKAKQENSAKKFYSESEEEEDSSDSSSDSESESGSESGEQGESGEEGDSNEDSSEDSSSEQDSESGRESGLENKRTAKRNSKAKGKSDSEDGEKENEKSKTSDSSNDESSSIEDSSSDSESESEPESESESRRVTKEKEKKTKQDRTPLTKDVSLLDLDDFNPVSTPVALPTPALSPSLMADLEGLHLSTSSSVISVSTPAFVPTKTHVLLHRMSGKGLAAHYFFPRQPCIFGDKMVSIQITLNNTTDRKIENIHIGEKKLPIGMKMHVFNPIDSLEPEGSITVSMGIDFCDSTQTASFQLCTKDDCFNVNIQPPVGELLLPVAMSEKDFKKEQGVLTGMNETSAVIIAAPQNFTPSVIFQKVVNVANVGAVPSGQDNIHRFAAKTVHSGSLMLVTVELKEGSTAQLIINTEKTVIGSVLLRELKPVLSQG
binding [1]: binds | binding (SFB-tagged IP6K1 (human)): binds
